According to patent US20080267971A1:
These are yes or no findings as the source states them, for the method shown. Some results given as binding are weak or reduced against the parent protein; the word gives no strength.

Chains of the proteins cited; added tags and fusions are not shown. Lines headed by an entry give the natural chain unless they say otherwise; changes in a name come on top.
UniProt O35608: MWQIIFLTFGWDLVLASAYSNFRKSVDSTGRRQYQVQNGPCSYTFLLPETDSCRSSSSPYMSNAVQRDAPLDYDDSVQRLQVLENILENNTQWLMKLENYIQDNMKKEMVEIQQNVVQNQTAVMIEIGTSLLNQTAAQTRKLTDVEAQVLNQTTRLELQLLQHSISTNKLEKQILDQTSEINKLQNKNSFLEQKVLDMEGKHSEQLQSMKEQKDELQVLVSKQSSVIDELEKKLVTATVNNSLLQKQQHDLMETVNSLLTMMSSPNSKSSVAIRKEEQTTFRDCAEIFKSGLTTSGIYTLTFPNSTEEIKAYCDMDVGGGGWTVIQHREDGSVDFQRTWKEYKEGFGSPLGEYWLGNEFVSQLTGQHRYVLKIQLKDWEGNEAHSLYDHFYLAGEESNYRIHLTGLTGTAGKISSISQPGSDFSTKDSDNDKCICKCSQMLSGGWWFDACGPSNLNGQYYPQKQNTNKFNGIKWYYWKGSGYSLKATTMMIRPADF

Tests used:
[1] = target: Mouse/Human Ang-2 StuI chimeric molecule (mouse; human) (UniProt O35608); assay: ELISA
[2] = target: Mouse/Human chimeric Ang-2 with the human StuI-TfiI fragment (mouse/human chimera) (UniProt O35608); assay: ELISA

B1: mAb 5.28.1 (antibody, V domains shown)
VH: EVQLVESGGIVVQPGGSLRLSCAASGFTFDDYTMHWVRQTPGKGLEWVSLISWDGGSTYYADSVKGRFTISRDNSKNSLYLQMNSLRTEDTALYYCAKDIDIAVAGTGFDHWGQGTLVTVSS
VL: EIVMTQSPATLSVSPGERATLSCRASQSVTSNLAWYQQKPGQAPRLLIYGALIRATGIPARFSGSGSGTEFTLTISSLQSEDFAVYYCQQYNNWPFTFGPGTKVDIKR
binding [1]: binds | binding [2]: binds
